According to the supplement of paper PMC6078165:

Tested on: MDAMB436
Assay: relative JC-1 red fluorescence (viability) vs pre-drug, coculture with fibroblast (fraction); higher = more viable cancer cells
Description: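 JC-1 labelled TNBC cells cocultured 1:1 (1,500 cells each) with CellTrace Violet stained primary or stromal fibroblasts in 384-well plates in FluoroBrite medium, treated with one of 42 anticancer drugs at 0.1, 1, 10 or 100 uM. JC-1 red fluorescence (mitochondrial integrity in cancer cells only) was read by plate reader every 8 h for 72 h. Values are normalised to each well's pre-drug value. The stock of one drug was tenfold lower, so its dose labels may be too high.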

O=NN(CCCl)C(=O)NCCCl [Carmustine]
relative JC-1 red fluorescence
Settings	8 h	16 h	24 h	32 h	40 h	48 h	56 h	64 h	72 h
10 µM, coculture fibroblast: C12385	0.826	0.7219	0.659	0.573	0.517	0.484	0.46	0.437	0.428
10 µM, coculture fibroblast: H6013	0.872	0.81	0.791	0.79	0.774	0.773	0.751	0.723	0.678
10 µM, coculture fibroblast: H6019	0.7651	0.653	0.633	0.56	0.513	0.498	0.464	0.432	0.405
10 µM, coculture fibroblast: H6076	0.826	0.721	0.628	0.568	0.532	0.5	0.49	0.476	0.469
10 µM, coculture fibroblast: H6231	0.751	0.643	0.547	0.488	0.444	0.413	0.3881	0.367	0.3464
10 µM, coculture fibroblast: HADF	0.8043	0.696	0.65	0.599	0.552	0.549	0.498	0.478	0.431
10 µM, coculture fibroblast: HCFa	0.782	0.6906	0.639	0.594	0.563	0.56	0.497	0.485	0.435
10 µM, coculture fibroblast: HCPF	0.787	0.702	0.609	0.551	0.509	0.464	0.425	0.407	0.388
10 µM, coculture fibroblast: HHSteC	0.836	0.776	0.729	0.685	0.659	0.664	0.605	0.572	0.516
10 µM, coculture fibroblast: HMF	0.794	0.715	0.59	0.55	0.525	0.505	0.499	0.482	0.481
10 µM, coculture fibroblast: HPFa	0.84484	0.7757	0.709	0.651	0.605	0.605	0.526	0.482	0.398
10 µM, coculture fibroblast: HUF	0.861	0.763	0.719	0.636	0.58	0.545	0.511	0.497	0.482
10 µM, coculture fibroblast: Hs5	0.797	0.741	0.649	0.589	0.561	0.519	0.509	0.465	0.444
10 µM, coculture fibroblast: Hs27A	0.7762	0.6995	0.675	0.643	0.612	0.658	0.567	0.537	0.472
10 µM, coculture fibroblast: Hs343T	0.807	0.717	0.585	0.527	0.479	0.443	0.413	0.399	0.394
10 µM, coculture fibroblast: WS1	0.815	0.728	0.676	0.591	0.544	0.515	0.49	0.456	0.437
100 µM, coculture fibroblast: C12385	0.786	0.754	0.761	0.693	0.6596	0.6415	0.631	0.624	0.621
100 µM, coculture fibroblast: H6013	0.813	0.788	0.793	0.797	0.812	0.851	0.8292	0.8233	0.779
100 µM, coculture fibroblast: H6019	0.768	0.7182	0.7046	0.6352	0.6081	0.5924	0.5658	0.5339	0.5044
100 µM, coculture fibroblast: H6076	0.683	0.61	0.605	0.572	0.562	0.547	0.573	0.5885	0.597
100 µM, coculture fibroblast: H6231	0.646	0.585	0.608	0.539	0.518	0.504	0.498	0.496	0.48
100 µM, coculture fibroblast: HADF	0.81	0.799	0.788	0.766	0.781	0.825	0.777	0.781	0.75
100 µM, coculture fibroblast: HCFa	0.813	0.797	0.782	0.752	0.745	0.767	0.714	0.714	0.672
100 µM, coculture fibroblast: HCPF	0.6446	0.596	0.609	0.558	0.544	0.518	0.527	0.528	0.518
100 µM, coculture fibroblast: HHSteC	0.8264	0.809	0.796	0.7644	0.76198	0.7831	0.7366	0.7248	0.68
100 µM, coculture fibroblast: HMF	0.665	0.577	0.559	0.521	0.503	0.482	0.486	0.4972	0.5013
100 µM, coculture fibroblast: HPFa	0.867	0.86	0.841	0.802	0.807	0.833	0.755	0.727	0.662
100 µM, coculture fibroblast: HUF	0.8082	0.746	0.727	0.657	0.613	0.598	0.587	0.583	0.588
100 µM, coculture fibroblast: Hs5	0.69	0.651	0.655	0.611	0.616	0.587	0.617	0.605	0.597
100 µM, coculture fibroblast: Hs27A	0.7942	0.789	0.787	0.77	0.755	0.838	0.742	0.74	0.674
100 µM, coculture fibroblast: Hs343T	0.683	0.614	0.581	0.537	0.512	0.491	0.497	0.5	0.508
100 µM, coculture fibroblast: WS1	0.769	0.732	0.73	0.6487	0.6222	0.5997	0.5856	0.563	0.549

Values are relative to the signal before dosing, not to a vehicle control; the signal also falls without drug.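 Fibroblast labels name human fibroblasts: mostly primary ones from tissues such as uterus (C12385, HUF), lung (H6013), bone (Hs27A), adrenal (HADF) and skin (WS1), plus mammary HMF and breast cancer-associated Hs343T. The cancer cells are basal-like or mesenchymal-like triple-negative breast cancer lines. The paper calls a changed response a hit when it shifts by more than 3x the replicate standard deviation. The tissue of the other fibroblasts is not given here.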
